Test results reported in article PMC4094278, “The Dictyostelium discoideum RACK1 orthologue has roles in growth and development” (Cell Communication and Signaling : CCS, 2014).
No constants are given. Whether binding was seen depends on the method and setting. Binding seen in cells or lysates may run through a third protein. A result given as binding can be weak or reduced; the word gives no strength.

Molecular target: GFP-DdRACK1mut (D. discoideum) (UniProt P46800)
Test: co-IP; GFP-, YFP- or RFP-tagged protein from AX2 lysates bound to GFP-trap or RFP-trap beads; lysis in 10 mM Tris/HCl pH 7.4, 150 mM NaCl, 0.5% NP40; 3 h; endogenous DdRACK1 detected by western blot with polyclonal antibodies

binding: binds
B1: recombinant DdRACK1 full length protein cleaved from the GST part (natural protein, D. discoideum, UniProt P46800 1-329, looked up)
chain: MEQQKAPQVTYLEVGSLVGHNGFVTSIAVSPENPDTIISSSRDKTVMVWQLTPTDATSPGKAHRSLKGHSHFVQDVVISHDGQFALSGSWDNTLRLWDITKGVSTRLFKGHTQDVMSVAFSSDNRQIISGSRDATIKVWNTLGECKFTLEGPEAHQDWVSCIRFSPNTPTIVSGSWDNKVKIWDIKSFKCNHTLTDHTGYVNTVTISPDGSLCASGGKDTFACLWELSSGKPLYKLEARNTINALAFSPNKYWLSAATDDKIIIWDLLTKQVLAEIVPEVKEQAFDSKKKKESKPKAPACLSLAWSADGSVLYAGYNDGLIRVYKSSSQ
notes: D. discoideum RACK1 (GpbB), 329 amino acids; Cloned in pGEX-4T-1; cleaved with thrombin; also called GpbB; D. discoideum RACK1; source: E. coli XL1 Blue, purified (GST-Sepharose, thrombin cleavage, DE-52 anion exchange)
